Values of other authors, collected in patent EP4729056A1, “SELF-EMULSIFIABLE DOCETAXEL COMPOSITION FOR INJECTION AND PREPARATION METHOD THEREFOR” (BEIJING DELIINJE PHARM. TECHNOLOGY CO., LTD., priority 2023, dated 2024).
Like-named read-outs stand apart in the source and are kept apart here.

CC(=O)O[C@@]12CO[C@@H]1C[C@H](O)[C@@]1(C)C(=O)[C@H](O)C3=C(C)[C@@H](OC(=O)[C@H](O)[C@@H](NC(=O)OC(C)(C)C)c4ccccc4)C[C@@](O)([C@@H](OC(=O)c4ccccc4)[C@H]21)C3(C)C [docetaxel, Docetaxel]
solubility (in organic solvents such as methanol and chloromethane): soluble in organic solvents such as methanol and chloromethane
solubility (in water): hardly soluble in water
